Consider one substance from publication doi:10.1101/2025.09.16.676457 (bioRxiv, 2025).

Sequences of proteins named here, by UniProt entry; tags and fusion partners are left off.
UniProt P32121: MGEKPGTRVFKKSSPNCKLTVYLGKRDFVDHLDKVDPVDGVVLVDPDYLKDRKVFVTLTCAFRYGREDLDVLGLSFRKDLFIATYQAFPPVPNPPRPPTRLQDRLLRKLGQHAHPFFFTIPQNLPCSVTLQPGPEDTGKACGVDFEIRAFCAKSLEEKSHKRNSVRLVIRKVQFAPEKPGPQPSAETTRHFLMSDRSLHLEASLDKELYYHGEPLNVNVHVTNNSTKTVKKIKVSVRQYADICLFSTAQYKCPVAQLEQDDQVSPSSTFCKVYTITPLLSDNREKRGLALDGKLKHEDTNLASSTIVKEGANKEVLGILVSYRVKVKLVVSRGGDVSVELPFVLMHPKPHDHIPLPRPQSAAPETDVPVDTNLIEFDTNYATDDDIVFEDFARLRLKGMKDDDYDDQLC

The experiment has as its target Lc-GPR25-LgBiT (Latimeria chalumnae (coelacanth)) (UniProt H3AQL3). Put plainly: split reporter.

These are yes or no findings as the source states them, for the method shown. Binding seen in cells or lysates may run through a third protein. Binding calls can cover weak binding; strength is not graded here.

As to SmBiT-ARRB2 (from UniProt P32121 1-409), the binding entry is listed as “binds”.
